± gives the uncertainty stated by the source. Many entries were measured with a wide error.
Assay: self-splicing fitness, log relative to wild type (ln ratio); higher = more splicing; Tetrahymena group I intron in knt gene, E. coli kanamycin selection, DiMSum; sequences stand for … in CUCUCU…GGAGGGAAAAGUUAUCAGGCAUGCACCUGGUAGCUAGUCUUUAAACCAAUAGAUUGCAUCGGUUUAAAAGGCAAGACCGUCAAAUUGCGGGAAAGGGGUCAACAGCCGUUCAGUACCAAGUCUCAGGGGAAACUUUGAGAUGGCCUUGCAAAGGGUAUGGUAAUAAGCUGACGGACAUGGUCCUAACCACGCAGCCAAGUCCUAAGUCAACAGAUCUUCUGUUGAUAUGGAUGCAGUUCACAGACUAAAUGUCGGUCGGGGAAGAUGUAUUCUUCUCAUAAGAUAUAGUCGGACCUCUCCUUAAUGGGAGCUAGCGGAUGAAGUGAUGCAACACUGGAGCCGCUGGGAACUAAUUUGUAUGCGAAAGUAUAUUGAUUAGUUUUGGAGUACUCGUGGUCG
Method in brief: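 Six replicate transformations of E. coli BL21(DE3) with a pET-22b(+) library were grown overnight at 37°C or 30°C. The library randomised all eight P1ex-region intron nucleotides, the intron lying in the knt kanamycin-resistance gene, and plates were LB agar with or without 25 μg/mL kanamycin plus 100 μg/mL carbenicillin, 50 μM IPTG and 0.2% rhamnose. Pooled colonies were amplicon-sequenced on an Illumina HiSeq 2500, and fitness is the DiMSum error-weighted combination of wild-type-normalised replicate fold changes, kanamycin versus none.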

Sequence | self-splicing fitness (ln) (30 °C) | self-splicing fitness (ln) (37 °C)
AGGCAGCAAUAUUACGGGGA | -3.6 ± 0.53 | –
AUGAAGCAAUAUUACGGAUU | -1.08 ± 0.078 | -0.689 ± 0.1
AAAGAGCAAUAUUACGCAGC | -4.73 ± 1 | –
GGAGAGCAAUAUUACGAAUA | – | -2.81 ± 0.55
GUGGAGCAAUAUUACGCUGA | -2.18 ± 0.84 | –
GAUUAGCAAUAUUACGCAGG | -2.54 ± 0.65 | –
GCAGAGCAAUAUUACGGCCA | -3.62 ± 0.6 | –
GCUGAGCAAUAUUACGCUCC | – | -1.78 ± 1.2
UAUGAGCAAUAUUACGGGGC | -3 ± 0.5 | -2.47 ± 0.77
UUGGAGCAAUAUUACGGGUA | -4.37 ± 1 | –
GAGAAGCAAUAUUACGGGUC | -3.08 ± 0.15 | -2.24 ± 0.16
CGGCAGCAAUAUUACGACCG | – | -3.06 ± 0.6
GAACAGCAAUAUUACGGUCA | -0.702 ± 0.062 | -1.05 ± 0.066
CAAAAGCAAUAUUACGGCAG | 0.126 ± 0.077 | -0.164 ± 0.089
CGGGAGCAAUAUUACGAAGU | -3.58 ± 0.73 | –
GAAUAGCAAUAUUACGAAGU | -3.48 ± 1.1 | –
AGCGAGCAAUAUUACGGGAC | -4.75 ± 0.72 | –
AGUAAGCAAUAUUACGUAAC | – | -2.48 ± 0.54
AUGGAGCAAUAUUACGCGCU | -2.21 ± 0.63 | -1.13 ± 1.2
GACGAGCAAUAUUACGAGGU | -3.81 ± 0.28 | -2.38 ± 0.27
CCGGAGCAAUAUUACGGCUC | -3.86 ± 1 | –
GCCCAGCAAUAUUACGGGCA | -2.35 ± 0.2 | -2.69 ± 0.21
AGGGAGCAAUAUUACGCAUU | – | -2.59 ± 0.54
AACUAGCAAUAUUACGUAAU | -1.82 ± 0.098 | -0.948 ± 0.099
GGACAGCAAUAUUACGGGCC | -3.62 ± 0.61 | –

Sequence | self-splicing fitness (ln) (30 °C) | self-splicing fitness (ln) (37 °C)
UGUCAGCAAUAUUACGCGAU | -3.41 ± 0.4 | -2.2 ± 0.34
CCUUAGCAAUAUUACGAGCC | – | -1.62 ± 1.1
AGCGAGCAAUAUUACGGGGC | -4.34 ± 0.52 | -2.59 ± 0.76
AGUGAGCAAUAUUACGCAGG | -5.04 ± 1 | –
CAGAAGCAAUAUUACGAAGC | – | -2.15 ± 0.56
CUGGAGCAAUAUUACGUCUU | – | -3.7 ± 0.59
CGCUAGCAAUAUUACGGAAC | -3.87 ± 0.52 | -3.81 ± 0.59
ACAGAGCAAUAUUACGUGAA | – | -3.62 ± 0.52
UCUUAGCAAUAUUACGGCCC | -0.828 ± 0.82 | -1.09 ± 0.92
UCAAAGCAAUAUUACGAUGU | -1.09 ± 0.074 | -0.341 ± 0.081
UGAGAGCAAUAUUACGUUGA | -3.63 ± 0.52 | –
UAGUAGCAAUAUUACGAAAG | -3.93 ± 0.52 | –
AAAUAGCAAUAUUACGGGUC | -3.56 ± 0.17 | -3.1 ± 0.24
UAUUAGCAAUAUUACGUGUC | – | -2.96 ± 0.53
GUGCAGCAAUAUUACGAGAA | -3.31 ± 0.74 | –
UCUGAGCAAUAUUACGCACC | – | -3.47 ± 1
CGAGAGCAAUAUUACGCCUG | -3.12 ± 0.25 | -1.73 ± 0.28
GCGGAGCAAUAUUACGGUUC | -2.31 ± 0.68 | –
GGCGAGCAAUAUUACGCGGG | -3.87 ± 0.54 | –
CGCUAGCAAUAUUACGCUGU | -4.48 ± 0.72 | –
GCGGAGCAAUAUUACGUCAU | -3.31 ± 0.61 | -3.27 ± 0.73
UCGGAGCAAUAUUACGGUUC | -3.94 ± 0.51 | –
UUAGAGCAAUAUUACGAUAC | – | -2.88 ± 1.1
UAUCAGCAAUAUUACGCCUC | -0.828 ± 1 | –
UUUGAGCAAUAUUACGGGGA | -3.43 ± 0.63 | –

An excerpt of these results, tab-delimited.
Sequence	self-splicing fitness (ln) (30 °C)	self-splicing fitness (ln) (37 °C)
GCGGAGCAAUAUUACGUCAU	-3.31 ± 0.61	-3.27 ± 0.73
UCGGAGCAAUAUUACGGUUC	-3.94 ± 0.51	–
UUAGAGCAAUAUUACGAUAC	–	-2.88 ± 1.1

Single records, as listed above. Values in the order: self-splicing fitness (ln) (30 °C)	self-splicing fitness (ln) (37 °C)
UCAAAGCAAUAUUACGAUGU as listed: -1.09 ± 0.074	-0.341 ± 0.081
GACGAGCAAUAUUACGAGGU as listed: -3.81 ± 0.28	-2.38 ± 0.27
CCUUAGCAAUAUUACGAGCC as listed: –	-1.62 ± 1.1
AUGGAGCAAUAUUACGCGCU as listed: -2.21 ± 0.63	-1.13 ± 1.2

Carrying on:

Sequence | self-splicing fitness (ln) (30 °C) | self-splicing fitness (ln) (37 °C)
CGCGAGCAAUAUUACGCUGC | – | -3.8 ± 0.59
GUUUAGCAAUAUUACGUUAA | -1.87 ± 0.33 | -1.68 ± 0.24
ACGUAGCAAUAUUACGCCGU | -2.54 ± 0.78 | -0.939 ± 0.76
ACUUAGCAAUAUUACGCCCC | – | 0.218 ± 0.56
AGCUAGCAAUAUUACGACCU | 0.703 ± 0.17 | -0.166 ± 0.18
GCGGAGCAAUAUUACGCUGC | -3.41 ± 0.75 | –
UUCUAGCAAUAUUACGAGUC | -3.6 ± 1 | –
GUAGAGCAAUAUUACGCUCU | – | -0.123 ± 0.57
CGGGAGCAAUAUUACGCGAU | -4.83 ± 0.72 | –
UGGAAGCAAUAUUACGAUUC | – | -3.41 ± 0.73
AGCCAGCAAUAUUACGAGCC | -4.27 ± 0.6 | –
AAAGAGCAAUAUUACGUAUC | -3.39 ± 0.6 | –
UCUAAGCAAUAUUACGAAAU | – | -3.95 ± 0.72
ACUUAGCAAUAUUACGCUGG | -1.25 ± 0.54 | -1.14 ± 0.65
GCGUAGCAAUAUUACGUCAC | -2.81 ± 1.1 | –
CAGGAGCAAUAUUACGAGUC | -3.87 ± 0.52 | -2.23 ± 0.56
GCGUAGCAAUAUUACGCUGC | -4.6 ± 0.72 | -1.98 ± 0.51
CGCCAGCAAUAUUACGCCCC | -1.5 ± 0.62 | -1.11 ± 0.75
UGUUAGCAAUAUUACGACGU | -0.716 ± 0.11 | -1.37 ± 0.1
AGCAAGCAAUAUUACGCUUC | -5.39 ± 0.5 | –
ACAGAGCAAUAUUACGCAGA | -3.37 ± 0.6 | –
UGCUAGCAAUAUUACGAACC | 0.635 ± 0.75 | –
CCCAAGCAAUAUUACGCUUC | -2.84 ± 0.18 | -3.15 ± 0.43
AGCAAGCAAUAUUACGCAAC | – | -2.62 ± 0.54
GGCGAGCAAUAUUACGGAUA | -3.69 ± 0.52 | –

Sequence | self-splicing fitness (ln) (30 °C) | self-splicing fitness (ln) (37 °C)
UUCCAGCAAUAUUACGUUUC | -3.24 ± 0.23 | -2.17 ± 0.21
GGUAAGCAAUAUUACGGUUG | – | -1.68 ± 0.6
AGGCAGCAAUAUUACGCCCU | – | -1.83 ± 0.82
UAAGAGCAAUAUUACGACCA | -2.43 ± 0.54 | -1.29 ± 1.2
GGGCAGCAAUAUUACGGCUC | -1.96 ± 0.52 | -0.254 ± 0.53
GGCGAGCAAUAUUACGCCAU | -4.49 ± 1 | -3.45 ± 0.6
CUUUAGCAAUAUUACGUCCC | -1.12 ± 0.76 | –
UGCGAGCAAUAUUACGCAGU | -4.83 ± 0.58 | –
CAUUAGCAAUAUUACGCCGA | -2.32 ± 0.19 | -2.18 ± 0.2
CUUUAGCAAUAUUACGGAAC | -2.49 ± 0.55 | –
GCGGAGCAAUAUUACGCCCC | -2.25 ± 1.1 | -2.16 ± 1.1
UGCGAGCAAUAUUACGCCAA | -3.7 ± 1.1 | -2.42 ± 0.77
UGCGAGCAAUAUUACGAUUC | – | -1.93 ± 0.81
CGCGAGCAAUAUUACGAGUG | -3.46 ± 0.31 | -1.78 ± 0.2
CUGAAGCAAUAUUACGUAAC | -4.06 ± 0.51 | –
AGCGAGCAAUAUUACGCCAC | – | -1.39 ± 0.87
CCGUAGCAAUAUUACGAGUC | – | -3.81 ± 0.51
CCGGAGCAAUAUUACGACCU | – | -2.03 ± 0.56
UAGAAGCAAUAUUACGCUGC | – | -2.04 ± 0.81
CGAGAGCAAUAUUACGCUAG | -2.84 ± 0.57 | –
CUCCAGCAAUAUUACGGCGG | -4.65 ± 0.28 | -3.1 ± 0.22
UUAUAGCAAUAUUACGGAAU | – | -3.97 ± 0.72
CCGUAGCAAUAUUACGGAUU | -5.12 ± 0.72 | –
GGAGAGCAAUAUUACGAUUA | -3.87 ± 0.74 | –

Reference: the supplement of paper PMC7877785
